In US20150024955A1, “Methods of Identifying Modulators of Dephosphorylation of Histone Deacetylase” (THE J. DAVID GLADSTONE INSTITUTES, priority 2006, published 2015):
No constants are given. Whether binding was seen depends on the method and setting. In cells and extracts the contact can be indirect. These calls come from enrichment with a bait or labelling near it, and not all partners need be listed. Where a sequence is shown, tags or fusion partners need not be part of it.

By UniProt entry, the sequences of proteins in these tests, tags left out.
UniProt P62259: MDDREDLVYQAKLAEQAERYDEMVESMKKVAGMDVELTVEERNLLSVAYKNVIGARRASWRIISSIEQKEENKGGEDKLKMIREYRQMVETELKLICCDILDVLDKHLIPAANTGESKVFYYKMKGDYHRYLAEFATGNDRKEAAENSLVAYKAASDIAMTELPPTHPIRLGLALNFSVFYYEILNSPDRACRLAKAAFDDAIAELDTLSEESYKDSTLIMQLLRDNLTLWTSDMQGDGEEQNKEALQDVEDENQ

Tests used:
[1] = target: T1, FLAG-tagged human HDAC7 (human) (UniProt Q8WUI4); experiment: anti-FLAG immunoprecipitation from DO11.10-HDAC7-Flag cells, SDS-PAGE, mass spectrometry
T1 sequence (looked up): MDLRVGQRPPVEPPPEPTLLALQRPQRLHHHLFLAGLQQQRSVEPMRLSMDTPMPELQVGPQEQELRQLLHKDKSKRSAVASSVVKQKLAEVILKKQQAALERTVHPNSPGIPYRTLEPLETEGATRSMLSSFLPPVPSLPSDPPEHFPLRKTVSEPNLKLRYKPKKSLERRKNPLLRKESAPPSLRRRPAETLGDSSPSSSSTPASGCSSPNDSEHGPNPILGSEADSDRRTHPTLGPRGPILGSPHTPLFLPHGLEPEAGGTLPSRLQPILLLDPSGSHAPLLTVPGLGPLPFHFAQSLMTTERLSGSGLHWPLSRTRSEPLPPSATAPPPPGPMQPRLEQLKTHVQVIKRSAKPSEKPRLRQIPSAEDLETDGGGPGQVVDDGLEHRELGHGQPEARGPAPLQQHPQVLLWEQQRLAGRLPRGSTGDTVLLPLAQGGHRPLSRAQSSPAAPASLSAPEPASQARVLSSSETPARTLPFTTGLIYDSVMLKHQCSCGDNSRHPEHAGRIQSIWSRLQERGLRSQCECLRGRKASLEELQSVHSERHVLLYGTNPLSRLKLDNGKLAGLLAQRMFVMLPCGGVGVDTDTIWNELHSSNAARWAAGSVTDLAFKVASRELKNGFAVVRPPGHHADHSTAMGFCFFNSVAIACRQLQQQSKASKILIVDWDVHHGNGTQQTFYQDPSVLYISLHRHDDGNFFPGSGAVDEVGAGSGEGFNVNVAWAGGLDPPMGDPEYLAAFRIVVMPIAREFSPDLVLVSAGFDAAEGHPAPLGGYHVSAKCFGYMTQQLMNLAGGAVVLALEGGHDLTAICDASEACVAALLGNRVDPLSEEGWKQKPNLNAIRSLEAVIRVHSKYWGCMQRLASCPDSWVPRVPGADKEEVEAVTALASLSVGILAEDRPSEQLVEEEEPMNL

[2] = target: T1, FLAG-tagged human HDAC7 (human); experiment: anti-FLAG M2 immunoprecipitation from DO11.10-HDAC7-Flag cells, Coomassie gel, mass spectrometry

binding [1]: binds
binding [2]: binds
Substance: 14-3-3 protein epsilon (from UniProt P62259 1-255)
